The results in this text go back to publication PMC8675914.

By UniProt entry, the sequences of proteins in these tests, tags left out. Where a name states a change or a piece, a line headed by the entry shows the natural chain unless it says otherwise. Chains listed by the source or under a name are the forms on record and can include a tag or linker. Residues count along the entry.
UniProt Q15418: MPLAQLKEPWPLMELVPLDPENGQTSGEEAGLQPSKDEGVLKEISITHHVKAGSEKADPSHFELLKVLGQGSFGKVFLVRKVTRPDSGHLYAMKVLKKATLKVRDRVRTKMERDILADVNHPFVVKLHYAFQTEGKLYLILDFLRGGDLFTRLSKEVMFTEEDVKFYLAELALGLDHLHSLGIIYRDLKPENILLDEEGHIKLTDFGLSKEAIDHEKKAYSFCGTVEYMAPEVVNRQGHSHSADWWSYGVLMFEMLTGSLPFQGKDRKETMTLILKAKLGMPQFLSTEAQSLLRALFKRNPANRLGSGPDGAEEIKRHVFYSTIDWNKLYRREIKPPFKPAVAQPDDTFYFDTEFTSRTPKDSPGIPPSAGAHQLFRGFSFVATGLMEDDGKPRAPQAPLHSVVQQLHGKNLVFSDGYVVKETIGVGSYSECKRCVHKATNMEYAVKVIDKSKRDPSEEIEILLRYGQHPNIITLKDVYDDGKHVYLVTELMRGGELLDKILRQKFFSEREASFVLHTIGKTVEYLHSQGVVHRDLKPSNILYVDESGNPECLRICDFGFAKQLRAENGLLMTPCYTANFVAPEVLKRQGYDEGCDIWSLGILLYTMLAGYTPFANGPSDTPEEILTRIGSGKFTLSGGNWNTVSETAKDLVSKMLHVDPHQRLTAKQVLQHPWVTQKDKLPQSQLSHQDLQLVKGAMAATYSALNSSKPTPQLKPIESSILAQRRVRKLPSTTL
RSK1^K110/335/421R SUMOylation deficient mutant (Q15418, form named): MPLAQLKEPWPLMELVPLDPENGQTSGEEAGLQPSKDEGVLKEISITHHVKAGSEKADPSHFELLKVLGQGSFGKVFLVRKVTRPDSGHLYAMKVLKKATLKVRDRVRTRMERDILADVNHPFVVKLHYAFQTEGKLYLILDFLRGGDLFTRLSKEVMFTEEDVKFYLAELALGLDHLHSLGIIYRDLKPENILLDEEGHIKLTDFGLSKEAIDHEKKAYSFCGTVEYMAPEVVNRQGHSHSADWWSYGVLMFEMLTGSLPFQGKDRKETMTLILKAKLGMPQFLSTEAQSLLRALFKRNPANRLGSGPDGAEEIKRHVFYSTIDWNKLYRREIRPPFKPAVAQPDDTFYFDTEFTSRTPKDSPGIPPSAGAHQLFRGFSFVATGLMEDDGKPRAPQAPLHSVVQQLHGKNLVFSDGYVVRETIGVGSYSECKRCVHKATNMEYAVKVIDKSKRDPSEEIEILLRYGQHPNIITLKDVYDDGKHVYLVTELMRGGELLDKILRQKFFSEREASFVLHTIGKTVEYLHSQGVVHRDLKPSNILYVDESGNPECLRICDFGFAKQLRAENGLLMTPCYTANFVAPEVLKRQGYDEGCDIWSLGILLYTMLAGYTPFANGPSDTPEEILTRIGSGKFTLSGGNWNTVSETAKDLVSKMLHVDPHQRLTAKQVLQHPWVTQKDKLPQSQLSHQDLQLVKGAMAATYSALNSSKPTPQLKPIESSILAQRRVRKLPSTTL
UniProt F5HDE4: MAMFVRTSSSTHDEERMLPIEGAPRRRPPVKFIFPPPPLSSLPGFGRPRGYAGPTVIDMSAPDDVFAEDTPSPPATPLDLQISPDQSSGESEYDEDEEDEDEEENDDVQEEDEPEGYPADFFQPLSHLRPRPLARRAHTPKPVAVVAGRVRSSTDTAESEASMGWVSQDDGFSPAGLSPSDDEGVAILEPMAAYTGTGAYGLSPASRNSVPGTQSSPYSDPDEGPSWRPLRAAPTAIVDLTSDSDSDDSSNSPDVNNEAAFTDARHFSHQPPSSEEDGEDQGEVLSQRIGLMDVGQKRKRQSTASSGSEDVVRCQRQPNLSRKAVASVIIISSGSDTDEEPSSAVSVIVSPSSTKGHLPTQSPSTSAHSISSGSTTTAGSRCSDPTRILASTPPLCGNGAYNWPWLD
UniProt P63165, residues 1-97: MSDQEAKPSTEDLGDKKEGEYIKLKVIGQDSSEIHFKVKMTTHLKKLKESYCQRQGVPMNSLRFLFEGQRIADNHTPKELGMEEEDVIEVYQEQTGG

No constants are given. Whether binding was seen depends on the method and setting. Binding seen in cells or lysates may run through a third protein. Some binding calls cover weakened binding; strength is not graded here.

In test [1] the target is wild-type RSK1 (p90 ribosomal S6 kinase 1) (human) (UniProt Q15418). The test is described as follows: co-IP.
The target in test [2] is RSK1^K110/335/421R SUMOylation deficient mutant (human) (UniProt Q15418). Briefly: co-IP.
For test [3], the target named is GST-tagged eIF4B SIM^WT peptide (human). The test is described as follows: pull-down; GST fusion on Glutathione Sepharose 4B incubated with HEK293T whole cell lysate (20 mM Tris-HCl pH 7.5, 0.5% NP-40, 150 mM NaCl) for 2 h at 4 °C; immunoblot; only the target purified. (In general: A western blot detects proteins with antibodies after separation by electrophoresis.)

For KSHV ORF45 (from UniProt F5HDE4 1-407), the binding result in test [1] and in test [2] was “binds” in each case.
In the case of “endogenous RSK1 (from UniProt Q15418 1-735) (enzyme)”, the binding entry in test [3] was “binds”.
Same read-out and setting: the entry for “endogenous SUMO1 (from UniProt P63165 1-97)” is “binds”.
